# Data published in PubChem BioAssay AID308 (DTP/NCI, 2004).
# The list shows only some results of the screen, not a fair sample: it covers a few groups of compounds. Not every dose and run of a compound is shown. T/C gives the treated animals as a percentage of the vehicle group. Some doses have a count of surviving animals in place of a T/C: the source holds a T/C of zero for them, seemingly a mark for toxic or unscored doses. Some survivor counts are full or nearly so, which does not show that the dose was tolerated: the source hardly ever lists a survival T/C far under the control, and the zero likely stands for such cases as well. Counts of survivors are from the toxicity check (mostly the fifth day) where no day follows; animals may have died later. Schedule codes are those of the source, taken here to give the interval after Q, in days (D) or hours (H), and the number of doses after X. Some schedules carry Z or #; the key to these is not given. For survival time, this PubChem deposit counts one and a half times the control or more as active, and values a quarter to a half above the control carry no call in these data; other NCI protocols may use other cut-offs. Some T/C values carry the count of animals alive at the toxicity check (mostly the fifth day); without a count or a note in brackets, all were alive then. Some doses were run more than once; the results are listed from low to high.
# Tested on: BDF1 mice, L1210 6-MP/6-TG resistant leukemia ip, survival T/C
# Assay: NCI In Vivo Anticancer Drug Screen. Data for tumor model L1210 Leukemia resistant to 6-MP and 6-Thioguanine; NSC 755, NSC 752 (intraperitoneal) in B6D2F1 (BDF1) mice
# Conditions: T/C endpoint: mean survival time, schedule: Q01DX Z (ip), higher T/C = longer survival
# Method: The antitumor activity of compounds was measured in mice bearing transplantable tumors. Survival or tumor size were measured and the results are expressed as the measurement made in the treated group (T) divided by the measurement made in the vehicle treated control group (C). The tumor model used in this assay is L1210 Leukemia resistant to 6-MP and 6-Thioguanine; NSC 755, NSC 752 (intraperitoneal) in B6D2F1 (BDF1) mice
# [1] = dose: 3.0 mg/kg/injection, vehicle: carboxymethylcellulose (CMC)
smiles,measurement,setting,value
CC[C@H](C)[C@@H]1NC(=O)/C(=C(\C)O)C1=O,T/C,"dose: 18.0 mg/kg/injection, vehicle: saline",102 % of control
same,T/C,"dose: 25.0 mg/kg/injection, vehicle: saline",102 % of control
same,T/C,"dose: 37.5 mg/kg/injection, vehicle: saline",101 % of control
same,T/C,"dose: 50.0 mg/kg/injection, vehicle: saline",112 % of control
same,T/C,"dose: 75.0 mg/kg/injection, vehicle: saline",110 % of control
same,T/C,"dose: 100.0 mg/kg/injection, vehicle: saline",103 % of control
same,survivor count,"dose: 150.0 mg/kg/injection, vehicle: saline",1 of 6
same,survivor count,"dose: 200.0 mg/kg/injection, vehicle: saline",0 of 6
Cc1[nH]c(=O)[nH]c(=O)c1N(CCCl)CCCl,T/C,"dose: 0.06 mg/kg/injection, vehicle: carboxymethylcellulose (CMC)",93 % of control
same,T/C,"dose: 0.12 mg/kg/injection, vehicle: carboxymethylcellulose (CMC)",87 % of control
same,T/C,"dose: 0.25 mg/kg/injection, vehicle: carboxymethylcellulose (CMC)",97 % of control
same,T/C,"dose: 0.5 mg/kg/injection, vehicle: carboxymethylcellulose (CMC)",111 % of control
same,T/C,"dose: 1.0 mg/kg/injection, vehicle: carboxymethylcellulose (CMC)",115 [5 of 6 alive] and 159 % of control
same,T/C,"dose: 2.0 mg/kg/injection, vehicle: carboxymethylcellulose (CMC)",132 % of control [5 of 6 alive]
same,T/C,[1],105 % of control
same,T/C,"dose: 4.0 mg/kg/injection, vehicle: carboxymethylcellulose (CMC)",101 % of control
same,survivor count,"dose: 5.0 mg/kg/injection, vehicle: carboxymethylcellulose (CMC)",4 of 6
same,survivor count,"dose: 10.0 mg/kg/injection, vehicle: carboxymethylcellulose (CMC)",1 of 6
same,survivor count,"dose: 15.0 mg/kg/injection, vehicle: carboxymethylcellulose (CMC)",3 of 6
same,survivor count,"dose: 20.0 mg/kg/injection, vehicle: carboxymethylcellulose (CMC)",1 of 6
CN(N=O)C(=N)N[N+](=O)[O-],T/C,"dose: 1.5 mg/kg/injection, vehicle: carboxymethylcellulose (CMC)",103 % of control
same,T/C,[1],131 % of control
same,T/C,"dose: 6.25 mg/kg/injection, vehicle: carboxymethylcellulose (CMC)",143 % of control
same,T/C,"dose: 12.5 mg/kg/injection, vehicle: carboxymethylcellulose (CMC)",153 % of control
same,T/C,"dose: 25.0 mg/kg/injection, vehicle: carboxymethylcellulose (CMC)",114 % of control
same,survivor count,"dose: 37.5 mg/kg/injection, vehicle: carboxymethylcellulose (CMC)",6 of 6
same,survivor count,"dose: 50.0 mg/kg/injection, vehicle: carboxymethylcellulose (CMC)",3 of 6
same,survivor count,"dose: 75.0 mg/kg/injection, vehicle: carboxymethylcellulose (CMC)",0 of 6
